Data as given in PubChem BioAssay AID1224830 (NIAID, 2016).
The whole screen tested about 18,000 reagents; shown is an unselected part. About 2,900 of all reagents (16%) were called active. 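Calls are made per well; low scores hint the gene aids the LPS response, high scores that it dampens it.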 Entries without a mark were called inactive. Repeated entries: four replicate wells of each siRNA pool. No sequences are given here.

Aim: 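Genes whose knock-down alters the TNF-alpha reporter response to LPS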 (primary screen)
Cells: human THP-1 monocytic leukaemia cells, TNF dual-luciferase reporter clone, PMA-differentiated to macrophage-like cells
Reagent: siRNA pool against human genes, 50 nM
Duration: LPS for 4 h, given about 3 days after siRNA transfection
Treatment: bacterial LPS (TLR4 ligand), 10 ng/ml
Detection: 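Ratio of firefly to renilla light, scaled to the plate median and expressed as a robust z-score per replicate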
Reading the numbers: TNF reporter robust z-score: higher = stronger TNF reporter response to LPS
Active means: 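Each well counts as active if its z-score is over 2.8 or under -1.5; controls are left without a call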

| target | TNF reporter robust z-score |
| --- | --- |
| KCNN2 (potassium calcium-activated channel subfamily N member 2) | 1.47 |
| KCNN2 (potassium calcium-activated channel subfamily N member 2) | 1.75 |
| KCNN2 (potassium calcium-activated channel subfamily N member 2) | -0.22 |
| KCNN2 (potassium calcium-activated channel subfamily N member 2) | 0.67 |
| UBA5 (ubiquitin like modifier activating enzyme 5) | -0.23 |
| UBA5 (ubiquitin like modifier activating enzyme 5) | -1.09 |
| UBA5 (ubiquitin like modifier activating enzyme 5) | -0.75 |
| UBA5 (ubiquitin like modifier activating enzyme 5) | -0.32 |
| NPFFR2 (neuropeptide FF receptor 2) | -0.19 |
| NPFFR2 (neuropeptide FF receptor 2) | 1.55 |
| NPFFR2 (neuropeptide FF receptor 2) | 1.43 |
| NPFFR2 (neuropeptide FF receptor 2) | 0.77 |
| THUMPD1 (THUMP domain 1 NAT10 acetyltransferase adaptor) | 0.81 |
| THUMPD1 (THUMP domain 1 NAT10 acetyltransferase adaptor) | 0.93 |
| THUMPD1 (THUMP domain 1 NAT10 acetyltransferase adaptor) | 0.5 |
| THUMPD1 (THUMP domain 1 NAT10 acetyltransferase adaptor) | 1.3 |
| EID2B (EP300 interacting inhibitor of differentiation 2B) | -0.09 |
| EID2B (EP300 interacting inhibitor of differentiation 2B) | -0.08 |
| EID2B (EP300 interacting inhibitor of differentiation 2B) | -0.25 |
| EID2B (EP300 interacting inhibitor of differentiation 2B) | 0.22 |
| DEFB107A (defensin beta 107A) | 0.57 |
| DEFB107A (defensin beta 107A) | 0.7 |
| DEFB107A (defensin beta 107A) | -0.43 |
| DEFB107A (defensin beta 107A) | -0.64 |
| NPM1 (nucleophosmin 1) | -1.02 |
| NPM1 (nucleophosmin 1) | -0.25 |
| NPM1 (nucleophosmin 1) | -0.57 |
| NPM1 (nucleophosmin 1) | -0.61 |
| RAPGEF1 (Rap guanine nucleotide exchange factor 1) | 3.88 (active) |
| RAPGEF1 (Rap guanine nucleotide exchange factor 1) | 3.67 (active) |
| RAPGEF1 (Rap guanine nucleotide exchange factor 1) | 3.04 (active) |
| RAPGEF1 (Rap guanine nucleotide exchange factor 1) | 2.97 (active) |
| LBR (lamin B receptor) | -0.11 |
| LBR (lamin B receptor) | -0.02 |
| LBR (lamin B receptor) | -0.54 |
| LBR (lamin B receptor) | -0.56 |
| KIF4A (kinesin family member 4A) | -0.91 |
| KIF4A (kinesin family member 4A) | -0.82 |
| KIF4A (kinesin family member 4A) | -1.11 |
| KIF4A (kinesin family member 4A) | -0.67 |
| TMEM244 (transmembrane protein 244) | -0.92 |
| TMEM244 (transmembrane protein 244) | -0.48 |
| TMEM244 (transmembrane protein 244) | 1.5 |
| TMEM244 (transmembrane protein 244) | 1.47 |
| ITPR3 (inositol 1,4,5-trisphosphate receptor type 3) | -0.85 |
| ITPR3 (inositol 1,4,5-trisphosphate receptor type 3) | -1.09 |
| ITPR3 (inositol 1,4,5-trisphosphate receptor type 3) | -1.32 |
| ITPR3 (inositol 1,4,5-trisphosphate receptor type 3) | -0.82 |
| L3MBTL2 (L3MBTL histone methyl-lysine binding protein 2) | -0.39 |
| L3MBTL2 (L3MBTL histone methyl-lysine binding protein 2) | 2.33 |
| L3MBTL2 (L3MBTL histone methyl-lysine binding protein 2) | 0.38 |
| L3MBTL2 (L3MBTL histone methyl-lysine binding protein 2) | 2.54 |
| EPN2 (epsin 2) | 3.02 (active) |
| EPN2 (epsin 2) | 1.72 |
| EPN2 (epsin 2) | -0.07 |
| EPN2 (epsin 2) | 0.3 |
| SP100 (SP100 nuclear body protein) | -1.36 |
| SP100 (SP100 nuclear body protein) | -0.27 |
| SP100 (SP100 nuclear body protein) | 0.66 |
| SP100 (SP100 nuclear body protein) | -0.93 |
| QNG1 (Q-nucleotide N-glycosylase 1) | 0.16 |
| QNG1 (Q-nucleotide N-glycosylase 1) | 0.95 |
| QNG1 (Q-nucleotide N-glycosylase 1) | 0.65 |
| QNG1 (Q-nucleotide N-glycosylase 1) | 0.4 |
| DACH1 (dachshund family transcription factor 1) | -0.38 |
| DACH1 (dachshund family transcription factor 1) | -0.64 |
| DACH1 (dachshund family transcription factor 1) | -1.68 (active) |
| DACH1 (dachshund family transcription factor 1) | -0.57 |
| CEACAM18 (CEA cell adhesion molecule 18) | -1.82 (active) |
| CEACAM18 (CEA cell adhesion molecule 18) | -1.48 |
| CEACAM18 (CEA cell adhesion molecule 18) | -1.96 (active) |
| CEACAM18 (CEA cell adhesion molecule 18) | -1.87 (active) |
| LYAR (Ly1 antibody reactive) | -1.2 |
| LYAR (Ly1 antibody reactive) | -1.17 |
| LYAR (Ly1 antibody reactive) | -1.15 |
| LYAR (Ly1 antibody reactive) | -1.05 |
| CNGB3 (cyclic nucleotide gated channel subunit beta 3) | -1.02 |
| CNGB3 (cyclic nucleotide gated channel subunit beta 3) | -0.97 |
| CNGB3 (cyclic nucleotide gated channel subunit beta 3) | 0.06 |
| CNGB3 (cyclic nucleotide gated channel subunit beta 3) | 0.54 |
| IPO8 (importin 8) | -0.22 |
| IPO8 (importin 8) | 0.01 |
| IPO8 (importin 8) | 0.84 |
| IPO8 (importin 8) | -0.54 |
| PPP1R9B (protein phosphatase 1 regulatory subunit 9B) | -1.02 |
| PPP1R9B (protein phosphatase 1 regulatory subunit 9B) | -0.61 |
| PPP1R9B (protein phosphatase 1 regulatory subunit 9B) | -0.83 |
| PPP1R9B (protein phosphatase 1 regulatory subunit 9B) | -0.89 |
| CAPN2 (calpain 2) | -1.4 |
| CAPN2 (calpain 2) | -1.1 |
| CAPN2 (calpain 2) | -1.56 (active) |
| CAPN2 (calpain 2) | 0.17 |
| MUC21 (mucin 21, cell surface associated) | -0.73 |
| MUC21 (mucin 21, cell surface associated) | -0.7 |
| MUC21 (mucin 21, cell surface associated) | -0.68 |
| MUC21 (mucin 21, cell surface associated) | 1.56 |
| CFAP418 (cilia and flagella associated protein 418) | 0.85 |
| CFAP418 (cilia and flagella associated protein 418) | 0.55 |
| CFAP418 (cilia and flagella associated protein 418) | 0.41 |
| CFAP418 (cilia and flagella associated protein 418) | -0.68 |
| CAT (catalase) | 1.09 |
| CAT (catalase) | 1.7 |
| CAT (catalase) | 1.78 |
| CAT (catalase) | 3.61 (active) |
| TRIM2 (tripartite motif containing 2) | -0.69 |
| TRIM2 (tripartite motif containing 2) | 0.05 |
| TRIM2 (tripartite motif containing 2) | 1.27 |
| TRIM2 (tripartite motif containing 2) | 0.95 |
| POLE4 (DNA polymerase epsilon 4, accessory subunit) | 1.84 |
| POLE4 (DNA polymerase epsilon 4, accessory subunit) | 1.85 |
| POLE4 (DNA polymerase epsilon 4, accessory subunit) | 2.25 |
| POLE4 (DNA polymerase epsilon 4, accessory subunit) | 2.35 |

Reprinted from the entries so far (7 entries):
| target | TNF reporter robust z-score |
| --- | --- |
| UBA5 (ubiquitin like modifier activating enzyme 5) | -0.23 |
| UBA5 (ubiquitin like modifier activating enzyme 5) | -1.09 |
| UBA5 (ubiquitin like modifier activating enzyme 5) | -0.75 |
| UBA5 (ubiquitin like modifier activating enzyme 5) | -0.32 |
| NPFFR2 (neuropeptide FF receptor 2) | -0.19 |
| NPFFR2 (neuropeptide FF receptor 2) | 1.55 |
| NPFFR2 (neuropeptide FF receptor 2) | 1.43 |
